Results reported in PMC13324451 (The Journal of Biological Chemistry, 2026).

Sequences of proteins named here, by UniProt entry; tags and fusion partners are left off.
UniProt Q7NY44: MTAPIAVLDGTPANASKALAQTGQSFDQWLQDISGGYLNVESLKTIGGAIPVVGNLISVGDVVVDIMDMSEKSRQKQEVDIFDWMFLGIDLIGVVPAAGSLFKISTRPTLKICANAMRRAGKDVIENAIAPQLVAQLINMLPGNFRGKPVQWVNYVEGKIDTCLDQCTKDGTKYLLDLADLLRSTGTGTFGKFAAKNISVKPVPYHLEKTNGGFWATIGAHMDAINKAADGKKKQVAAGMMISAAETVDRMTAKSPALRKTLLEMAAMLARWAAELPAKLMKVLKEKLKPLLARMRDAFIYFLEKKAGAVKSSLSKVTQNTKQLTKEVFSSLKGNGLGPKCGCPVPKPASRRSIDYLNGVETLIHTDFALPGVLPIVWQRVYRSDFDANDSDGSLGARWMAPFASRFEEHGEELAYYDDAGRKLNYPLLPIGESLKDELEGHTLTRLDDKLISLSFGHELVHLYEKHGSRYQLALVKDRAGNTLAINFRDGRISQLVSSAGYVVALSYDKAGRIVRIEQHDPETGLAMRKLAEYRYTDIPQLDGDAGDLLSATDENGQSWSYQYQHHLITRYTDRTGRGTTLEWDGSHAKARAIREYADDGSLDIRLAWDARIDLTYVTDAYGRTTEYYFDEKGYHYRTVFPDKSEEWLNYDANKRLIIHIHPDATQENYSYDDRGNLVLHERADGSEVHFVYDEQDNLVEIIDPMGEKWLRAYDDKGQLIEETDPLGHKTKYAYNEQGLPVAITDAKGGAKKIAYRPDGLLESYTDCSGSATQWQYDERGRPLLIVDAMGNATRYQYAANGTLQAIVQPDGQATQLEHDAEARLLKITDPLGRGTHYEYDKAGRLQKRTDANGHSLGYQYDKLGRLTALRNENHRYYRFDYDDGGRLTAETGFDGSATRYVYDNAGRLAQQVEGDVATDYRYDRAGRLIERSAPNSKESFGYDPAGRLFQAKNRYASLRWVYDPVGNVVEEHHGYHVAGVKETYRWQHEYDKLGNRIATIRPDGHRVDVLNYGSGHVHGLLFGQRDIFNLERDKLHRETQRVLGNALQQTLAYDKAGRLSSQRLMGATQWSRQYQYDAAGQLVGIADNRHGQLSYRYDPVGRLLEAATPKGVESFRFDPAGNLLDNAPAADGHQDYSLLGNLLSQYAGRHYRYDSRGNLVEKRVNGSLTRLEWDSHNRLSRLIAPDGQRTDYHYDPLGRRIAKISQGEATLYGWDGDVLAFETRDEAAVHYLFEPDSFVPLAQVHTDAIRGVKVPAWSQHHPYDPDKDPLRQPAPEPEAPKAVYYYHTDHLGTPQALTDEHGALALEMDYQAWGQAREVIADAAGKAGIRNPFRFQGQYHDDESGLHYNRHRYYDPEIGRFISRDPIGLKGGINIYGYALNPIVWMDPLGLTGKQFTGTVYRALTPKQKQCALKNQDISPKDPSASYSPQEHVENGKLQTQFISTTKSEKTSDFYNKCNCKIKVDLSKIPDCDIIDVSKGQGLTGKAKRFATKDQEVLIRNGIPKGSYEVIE

B1: VgrG1 (protein, UniProt Q7NQZ9 1-872)
chain: MDLTSLLSSFASAFTQDQRLLTLELGSGQVAAEQLLPQSLNGEEGVSQAYRYQLTCLSPDGAIELKTLLGQAARIGIADAQGQETIRCGVVSQARLMGSDGGFAQYGLTIEPPIALLRHRKTSRVFQDLSVPDIVQQIVHEHQAANPVFARAQSIEFKVGPAQPRSYCLQYREDDFSFIVRLLHEEGYAWRFEHVDGDSPQVKLVVFDDAYSLPPAEVERVRFHRSDATEEEDGLTDWSAARQIVPGNVALATFDYQPVSTQHTGDSSQIDQGPGGQALQSSLQDYDPQGLYYAGDAEQLSHYARLRQQAHDLQAKTFEGAGSIRGLTAGQWFRLDDHPAHEADSHEQREFVVTGQTLQVRNNLPTDLQSILPTGDKADAPFRTRIQAQRRGIPLTPAYAGTEHAKPKSRGVQTATVVGPAGEEVHTDQHGRIKVQFHWQRPDEHPTIGAALDDKSSCWLRVAMPSAGAGWGHQFIPRIGQEVLVDFIEGDIDRPVITGVLYNGSHPTPDFSGAGSLPANKTLSGIKSKEHQGGGYNELLFDDTPGEVRAKLSSEPGKTQLNQGYLAHPRSNGKAQPRGDGFELRTDHHGAIRAAHGLLLTTEAQNGASGKQLAREHAQSQLDAALSLSQALAETASGQLADTMETGPDEIGPDNAKAGKKTDGHLQHHADALKAWEAGSNTDKDGKTAKDQAGQQPLLVLSAPAGIASLTEQSQTVSAGQNLNLIAQRDANHTTGRRWLHNVGQHISLFVAGVKDKVALKLIAAKGKVQVQAQSDAMELTADKDVTIMSCKERIVVNAKDEILLTAGGAYIRLKGGNIEVHAPGTVSVKAAQHKLSGPDNMTIPMPVFPGKQFCLQCMLNAIKSGSPLAGQ
B2: VgrG6 (protein, UniProt Q7P245 1-879)
chain: MDLNSLLSSFASAFNQEQRLLTLELGTGQIAAEQLLPLSLDGEEGVSRAYRYTVTCLSPDGHIELKTLLGQPARIGIQDADGDETIRCGMVSQARLAGADGGFARYELTIEPPFALLRHRKTSRVFQDLSVPDIVKQILAEHQAANPAFARAQTLDIQVRPAPPRSYTLQYRESDFDFIVRLLHEEGYAWRFVHLDEVTERGSEASRGNSPQVELAVFDDAHSLPAAKLERVRFHRSDATEEEDGLTEWQAAHQIVPGGTTLVSYDYKPVYSQQNRDDSHIDQGQTGQALQSSLTQYDAPGLYYAGDEEQLGRYAQLRQQANDLQAKSFSGSGSVRGLLPGDWFRLDDHPAHDGDAAENREFVVTGQSFQVRNNLPQDLAQHIGTESDATPFATSIQAQRRGIPLTPAYAGTELAKPTSLGVQTATVVGPAGEEVHTDQHGRIKVQFHWQRPDEHPTIGASLDDKSSCWLRVAMPSAGAGWGHQFIPRIGQEVLVDFIEGDIDRPVITGVLYNGSHPTPDFSGAGSLPANKTLSGIKSKEHQGGGYNELLFDDTPGEVRAKLSSEPGKTQLNQGYLAHPRSNGKAQPRGDGFELRTDHHGAIRAAHGLLLTTEVQNGASGKQLAREHAQSQLDAALSLSQALAETASGQLADTMETGPEEIGPDNAKAGKKSDGHLQHHADALKAWEAGSNTDKDGKTAKDQAGQQPLLVLSAPAGIAALTEQSHTVSAGQNLNLVAQRDANHTTGRRWIHNVGQHISLFVAGVKDKVALKLIAAKGKVQAQSDAMELTADKDVAITSVKQKVQFNGKQEILLTSGGAYVRIKDGKIELHAPGTVSFKGASHDWSGPASTNLPFPTLPQGDTPSCQLAAIQHKSGMTKK
B3: VgrG5 (protein, UniProt Q7P238 1-874)
chain: MDLNALLSSFASAFGQDHRPLTLELGSGQIAAEQLLPLSLDGEEGLSRAYRYTVTCLSPDGHIELKTLLGQPARIGIQDADGDETIRCGVVSQARLAGADGGFARYELTIEPPFALLRHRKTSRVFQDLSVPDIVKQILAEHQAANPAFARTQTLDIQVKPAPPRSYTLQYRESDFDFIVRLLHEEGYAWRFVHLDEVTERGSEASRGNSPQVELAVFDDALSLPAAKLERVRFHRSDATEEEDGLTEWQAARQIVPGGTALASYDYKPVYSQQNRDDSHIDQGQTGQALQSSLTQYDAPGLYYADDEEQLGRYAQLRQQANDLQAKSFSGSGSVRGLLPGDWFRLDDHPAHDGDAAENREFVVTGQSFQVRNNLPQDLAQHIGTESDATPFATSIQAQRRGIPLTPAYAGTEHAKPKSRGVQTATVVGPAGEEVHTDQHGRIKVQFHWQRPDEHPTIGAALDDKSSCWLRVAMPSAGAGWGHQFIPRIGQEVLVDFIEGDIDRPVITGVLYNGSHPTPDFSGAGALPANKTLSGIKSKEHQGGGYNELLFDDTPGEVRAKLSSEPGKTQLNQGYLAHPRSNGKAQPRGDGFELRTDHHGAIRAAHGLLLTTEAQNGASGKQLAREHAQSQLDAALSLSQALAETASGQLADAMETGPDEIGPDNAKAGKKTDGHLQHHADALKAWEAGSNTDKDGKTAKDQAGQQPLLVLSAPAGIAALTEQSHTVSAGQNLNLVAQRDANHTTGRRWLHNVGQHISLFVAGVKDKVALKLIAAKGKVQVQAQSDAMELTADKDVTITSCKERIVVNAKQEILVTAGGGYIRIAGGNIEVHCPGTVSVKGASHDLSGPASMNPPLPTLPKDKYTPPNTHPFSE
B4: Tle1 phospholipase (CV_3971) (protein, UniProt Q7NR14 1-691)
chain: MSKVSLAPAFPERGHWPSDLNEVIKQRYAQQREIAAHCVDARGEGKPADCALVMNVSLFFDGTNNHGDSDDAADPVCSTNIRRLYHATVGKDDAQSSGYFSYYIQGVGTCFPEIGEKKPLDSGLRYASGGDARIQWGITRLIRALHLATPLEPPSEEDMAKLVEGLQYQYEKREKGPTVKYETTPDERRALVKKALKDVLAEQEKPDHKPKILKIKLFVYGFSRGAAEARAFLWRLGELIEDGALASFPIEVKFVGLLDTVASVGLTELAPGAQGHQGWADGTMKLPPWLPADCCVHLVSAHEQRLCFPLDSVGTDAVGAYPASVKGEWVYPGMHSDVGGGYPPQDQGKALDGQPLLLSQVALLHLYSLAFAAGAPLKINADRLMNANPQQLAMLKAKEPWRFMLDDVQKLFAIDDVLIRRFNAWQNFSTKHLPASRKEEGPMEAIMRAQAAQINAWRIERFSGGLQGKGGQDQSHSNFYQYASKERQTPEWRVKEEKRIWDKQSGKGKPAAPEPLLDEDKKPRLDENGNPIEWKPNLNKAYEPTLDKVQLDLGATDFTNDYLDRASLANKGNLVGILTSILTSPSRLFSADKIMDEFPLLKRDSEALHADVVADKELMALYDDHVHDSRAWFMQSSLDKLEPGGTYWRYRTIFFTDDINNKQQLDKLPEVKAERERREREKEMKRMYSGG
B5: Tle1 phospholipase (CV_3990) (protein, UniProt Q7NQZ5 1-523)
chain: MSCVSGKQEAQCQSQIHVMMFFDGTGNNIQADYYQAASGKQRPSNVARLFMTARDKPNEGYFRFYMPGVGTPFPEIDDTGGALGGGAGAGGEARILWALTRLVNAPHQYVNKSPLIADGLAKKITSNAGGLTGGVMRKVIFNTWQEKLQQALKGRKPQITQINLSVFGFSRGATEARAFVNWLYQICHQQNGAWSFAGISLRTQFLGIMDTVASVGLAQLLPNTIPATGHMAWADNNLTIHPAVEQCVHYVAGHEVRACFPLDTVRRGNSYPANTIEVMFPGSHSDVGGGYASGDLGILPAQNGQLCAIPGRRLYDAARQAGVPLLAMDQLTERVQNLLTPTQEVINDFNAYLREAKIAPGSTEKMHRQHMALYLSQRFKYRHDFAKRAPYRTASAKHQGFLQITQASLIKGLRKLYAGDPMAPDFDPARAAAKAAKQEQELQKLMPMLPEQGMSIPSEVLPETDPKKVAATMNIRLLTPAIENFLEKYIHDSMAGFIGDGVNEAKINQIGLLKFRTLYAGNE
B6: VgrG2 (protein, UniProt Q7NR10 1-872)
chain: MDLSSLLASFASAFNQDQRLLTLELGSGQVAAEQLLPQSLNGEEGVSQAYRYQLTCLSPDGAIELKTLLGQAARIGIADAQGQETIRCGVVSQARLMGSDGGFAQYGLTIEPPIALLRHRRTSRVFQDLSVPDIVQQIVHEHQAANPVFARAQTVEFKVGPAQPRSYCLQYREDDFSFIVRLLHEEGYAWRFEHVDGDAPQVKLAVFDDAYSLPPAEVERVRFHRSDATEEEDGLTDWSAARQIVPGNVALATFDYQPVSTQHTGDSSQIDQGPGGQALQSSLQDYDPQGLYYAGDAEQLSHYARLRQQAHDLQAKSFEGAGSIRGLTAGQWFRLDDHPAHEADSHEQREFVVTGQTLQVRNNLPTDLQSILPTDDQTDAPFTTRIQAQRHGIPLTPAYAGTEHAKPKSRGVQTATVVGPAGEEVHTDQHGRIKVQFHWQRPDEHPTIGAALDDKSSCWLRVAMPSAGAGWGHQFIPRIGQEVLVDFIEGDIDRPVITGVLYNGSHPTPDFSGAGSLPANKTLSGIKSKEHQGGGYNELLFDDTPGEVRAKLSSEPGKTQLNQGYLAHPRSNGKALPRGDGFELRTDHHGAIRAAHGLLLTTEAQNGASGKQLAREHAQSQLDAALSLSQALAETASGQLADAMETGPDEIGPDNAKAGKKTDGHLQHHVDALKAWEAGSNTDKDGKTAKDQAGQQPLLVLSAPAGIAALTEQSQTVSAGQNLNLVAQRDANHTTGRRWIHNVGQHISLFVAGVKDKVALKLIAAKGKVQVQAQSDAMELTADKDVTITSAKQTIHVNAKQEILLTSGGAYIRLKDGKIELHAPGTISIKGASHNFSGPDQMNPPLPRFPNTVCKQCMAQAFSQANPLVAAK

What follows are molecules tested against T1, VgrG3 with a C-terminal haemagglutinin epitope tag (VgrG3-HA) (Chromobacterium violaceum ATCC 12472) (UniProt Q7NY43) (assay: affinity purification with mass spectrometry; VgrG3-HA precipitated with HA-tag rabbit mAb magnetic beads from the soluble fraction of C. violaceum vgrG3-HA cells (untagged wild type as control); 16 h at 4 °C; 20 mM Tris-Cl pH 7.5, 150 mM NaCl, 0.5 mM EDTA, 0.1% Triton X-100; label-free quantitative MS, biological triplicates).
T1 sequence: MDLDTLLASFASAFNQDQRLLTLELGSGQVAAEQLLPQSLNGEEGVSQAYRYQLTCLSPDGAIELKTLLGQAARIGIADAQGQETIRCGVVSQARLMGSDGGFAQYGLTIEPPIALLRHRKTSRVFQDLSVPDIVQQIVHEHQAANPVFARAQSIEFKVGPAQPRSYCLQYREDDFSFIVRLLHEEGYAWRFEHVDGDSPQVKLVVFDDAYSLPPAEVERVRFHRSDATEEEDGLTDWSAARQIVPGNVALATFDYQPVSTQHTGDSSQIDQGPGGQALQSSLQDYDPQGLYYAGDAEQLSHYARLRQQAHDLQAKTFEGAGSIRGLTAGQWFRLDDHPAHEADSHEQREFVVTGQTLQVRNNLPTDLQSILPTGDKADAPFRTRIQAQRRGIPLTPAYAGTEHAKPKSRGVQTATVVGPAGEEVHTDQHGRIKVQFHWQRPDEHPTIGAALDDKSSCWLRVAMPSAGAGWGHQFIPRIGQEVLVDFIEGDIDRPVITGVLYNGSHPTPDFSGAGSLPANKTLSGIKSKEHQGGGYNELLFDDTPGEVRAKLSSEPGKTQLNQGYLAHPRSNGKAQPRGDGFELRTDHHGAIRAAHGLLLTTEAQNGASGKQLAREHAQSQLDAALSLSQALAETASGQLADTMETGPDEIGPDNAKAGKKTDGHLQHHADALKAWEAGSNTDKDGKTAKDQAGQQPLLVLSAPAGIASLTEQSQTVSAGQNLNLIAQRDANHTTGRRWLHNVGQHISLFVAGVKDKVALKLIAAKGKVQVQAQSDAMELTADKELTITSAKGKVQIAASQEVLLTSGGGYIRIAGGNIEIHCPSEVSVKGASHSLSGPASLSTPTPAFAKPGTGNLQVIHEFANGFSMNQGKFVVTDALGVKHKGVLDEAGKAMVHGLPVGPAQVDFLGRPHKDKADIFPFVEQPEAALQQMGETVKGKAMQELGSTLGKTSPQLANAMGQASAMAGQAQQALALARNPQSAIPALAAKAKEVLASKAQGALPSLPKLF
In the case of “RhsF (Rhs family protein containing a FIX domain) (from UniProt Q7NY44 1-1513)”, the binding is reported as “binds”. In the case of B1, the binding is reported as “binds”. B2 was tested, and the binding was “binds”. B3 was tested, and the binding was “binds”. B4 was tested, and the binding was “binds”. With B5 the binding was “binds”. B6 was tested, and the binding was “binds”.

No constants are given. Whether binding was seen depends on the method and setting. Binding seen in cells or lysates may run through a third protein. A yes stands for co-enrichment or nearness to the bait. Other partners may have been found. Tags and fused reporters may be left off the sequences shown.
